Measured values from the supplement of paper PMC4604168 (melanoma cell lines).
This is one part of the list. Many values rest on one well or one pass, so single values are uncertain.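 Imaging used 1,536-well plates; nuclei positive for cleaved PARP by antibody were divided by total DNA-stained nuclei to yield the apoptosis fraction. Doses for screening kept most cells viable, and cell lines differ markedly in resting and induced cleaved-PARP levels.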

How the values were obtained:
Experiment in all cases: cleaved PARP positive nuclei fraction relative to DMSO control; melanoma cells; higher = more apoptosis
Conditions in all cases: library dose: low library concentration; 72 h
[1] = test system: MZ2-MEL
[2] = test system: MeWo
[3] = test system: RPMI7951
[4] = test system: RVH-421
[5] = test system: SkMel28
[6] = test system: SkMel2
[7] = test system: SkMel30
[8] = test system: UACC62
[9] = test system: SkMel5
[10] = test system: UACC257

C[C@@H](N)c1ccc(C(=O)Nc2ccnc3[nH]ccc23)cc1 + COc1ccc(Cl)c(Nc2nc3ccccc3nc2NS(=O)(=O)c2cccc(NC(=O)C(C)(C)N)c2)c1 [XL147] (first compound 0.4 µM, partner dose 0.8 µM)
cleaved PARP positive nuclei fraction [1]: 272%
cleaved PARP positive nuclei fraction [2]: 325%
cleaved PARP positive nuclei fraction [3]: 130%
cleaved PARP positive nuclei fraction [4]: 328%
cleaved PARP positive nuclei fraction [5]: 188%
cleaved PARP positive nuclei fraction [6]: 223%
cleaved PARP positive nuclei fraction [7]: 75.3%
cleaved PARP positive nuclei fraction [8]: 176%

C[C@]1(O)C[C@@H](c2nc(-c3ccc4ccc(-c5ccccc5)nc4c3)c3c(N)nccn32)C1 + O=c1cc(-c2cccc3c2Sc2ccccc2S3)oc(N2CCOCC2)c1 [KU55933] (first compound 0.4 µM, partner dose 1 µM)
cleaved PARP positive nuclei fraction [1]: 128%
cleaved PARP positive nuclei fraction [2]: 88.6%
cleaved PARP positive nuclei fraction [3]: 39.1%
cleaved PARP positive nuclei fraction [4]: 44.3%
cleaved PARP positive nuclei fraction [5]: 249%
cleaved PARP positive nuclei fraction [6]: 107%
cleaved PARP positive nuclei fraction [7]: 73.9%
cleaved PARP positive nuclei fraction [9]: 84.2%
cleaved PARP positive nuclei fraction [10]: 316%
cleaved PARP positive nuclei fraction [8]: 108%

CCN(CC)CCNC(=O)c1c(C)[nH]c(/C=C2\C(=O)Nc3ccc(F)cc32)c1C [sunitinib] + CCCCCCCCc1ccc(CCC(N)(CO)CO)cc1 [fingolimod] (first compound 0.4 µM, partner dose 2 µM)
cleaved PARP positive nuclei fraction [1]: 128%
cleaved PARP positive nuclei fraction [2]: 108%
cleaved PARP positive nuclei fraction [3]: 171%
cleaved PARP positive nuclei fraction [4]: 91.7%
cleaved PARP positive nuclei fraction [5]: 99.6%
cleaved PARP positive nuclei fraction [6]: 27.7%
cleaved PARP positive nuclei fraction [7]: 49%
cleaved PARP positive nuclei fraction [8]: 58.1%

C[C@]1(O)C[C@@H](c2nc(-c3ccc4ccc(-c5ccccc5)nc4c3)c3c(N)nccn32)C1 + O=C(O)c1ccc2c(c1)nc(Nc1cccc(Cl)c1)c1ccncc12 [CX4945] (first compound 0.4 µM, partner dose 0.4 µM)
cleaved PARP positive nuclei fraction [1]: 175%
cleaved PARP positive nuclei fraction [2]: 147%
cleaved PARP positive nuclei fraction [3]: 28.8%
cleaved PARP positive nuclei fraction [4]: 61%
cleaved PARP positive nuclei fraction [5]: 71.3%
cleaved PARP positive nuclei fraction [6]: 85%
cleaved PARP positive nuclei fraction [7]: 46.9%
cleaved PARP positive nuclei fraction [8]: 175%

Cn1sc(=O)n(Cc2ccccc2)c1=O + CC(C)CCN1c2nc(Nc3cc(F)c(O)c(F)c3)ncc2N(C)C(=O)C1C [BID1870] (first compound 0.4 µM, partner dose 0.2 µM)
cleaved PARP positive nuclei fraction [1]: 130%
cleaved PARP positive nuclei fraction [2]: 106%
cleaved PARP positive nuclei fraction [3]: 127%
cleaved PARP positive nuclei fraction [4]: 175%
cleaved PARP positive nuclei fraction [5]: 170%
cleaved PARP positive nuclei fraction [6]: 225%
cleaved PARP positive nuclei fraction [7]: 54.8%
cleaved PARP positive nuclei fraction [9]: 148%
cleaved PARP positive nuclei fraction [10]: 21.8%
cleaved PARP positive nuclei fraction [8]: 79.3%

C[C@]1(O)C[C@@H](c2nc(-c3ccc4ccc(-c5ccccc5)nc4c3)c3c(N)nccn32)C1 + Nc1ccn([C@@H]2O[C@H](CO)[C@@H](O)C2(F)F)c(=O)n1 [gemcitabine] (first compound 0.4 µM, partner dose 0.0004 µM)
cleaved PARP positive nuclei fraction [1]: 193%
cleaved PARP positive nuclei fraction [2]: 134%
cleaved PARP positive nuclei fraction [3]: 43.7%
cleaved PARP positive nuclei fraction [4]: 270%
cleaved PARP positive nuclei fraction [5]: 320%
cleaved PARP positive nuclei fraction [6]: 42.3%
cleaved PARP positive nuclei fraction [7]: 68%
cleaved PARP positive nuclei fraction [8]: 119%

NC1(c2ccc(-c3nc4ccn5c(=O)[nH]nc5c4cc3-c3ccccc3)cc2)CCC1 + CCN(CC)CCCCNc1ncc2cc(-c3cc(OC)cc(OC)c3)c(NC(=O)NC(C)(C)C)nc2n1 [PD173074] (first compound 0.4 µM, partner dose 0.1 µM)
cleaved PARP positive nuclei fraction [1]: 131%
cleaved PARP positive nuclei fraction [2]: 180%
cleaved PARP positive nuclei fraction [3]: 136%
cleaved PARP positive nuclei fraction [4]: 84.9%
cleaved PARP positive nuclei fraction [5]: 297%
cleaved PARP positive nuclei fraction [6]: 53.4%
cleaved PARP positive nuclei fraction [7]: 97.5%
cleaved PARP positive nuclei fraction [9]: 82.8%
cleaved PARP positive nuclei fraction [10]: 411%
cleaved PARP positive nuclei fraction [8]: 197%

CS(=O)(=O)c1ccc(C(=O)Nc2ccc(Cl)c(-c3ccccn3)c2)c(Cl)c1 [vismodegib] + Cc1ccc(NC(=O)c2cccc(N(C)C)c2)cc1NC(=O)c1ccc(O)cc1 [ZM336372] (first compound 1 µM, partner dose 2 µM)
cleaved PARP positive nuclei fraction [1]: 314%
cleaved PARP positive nuclei fraction [2]: 101%
cleaved PARP positive nuclei fraction [3]: 118%
cleaved PARP positive nuclei fraction [4]: 79%
cleaved PARP positive nuclei fraction [5]: 124%
cleaved PARP positive nuclei fraction [6]: 90.8%
cleaved PARP positive nuclei fraction [7]: 65.9%
cleaved PARP positive nuclei fraction [9]: 94.2%
cleaved PARP positive nuclei fraction [10]: 214%
cleaved PARP positive nuclei fraction [8]: 70.7%

CC1(C)CCC(c2ccc(Cl)cc2)=C(CN2CCN(c3ccc(C(=O)NS(=O)(=O)c4ccc(N[C@H](CCN5CCOCC5)CSc5ccccc5)c(S(=O)(=O)C(F)(F)F)c4)cc3)CC2)C1 + COc1cc(N2CCC(N3CCN(C)CC3)CC2)ccc1Nc1ncc(Cl)c(Nc2ccccc2S(=O)(=O)C(C)C)n1 [NVP-TAE684] (first compound 0.4 µM, partner dose 0.08 µM)
cleaved PARP positive nuclei fraction [1]: 257%
cleaved PARP positive nuclei fraction [2]: 500%
cleaved PARP positive nuclei fraction [3]: 123%
cleaved PARP positive nuclei fraction [4]: 101%
cleaved PARP positive nuclei fraction [5]: 101%
cleaved PARP positive nuclei fraction [6]: 292%
cleaved PARP positive nuclei fraction [7]: 71.2%
cleaved PARP positive nuclei fraction [9]: 494%
cleaved PARP positive nuclei fraction [10]: 149%
cleaved PARP positive nuclei fraction [8]: 130%
